Assay results as given in PubChem BioAssay AID540256 (National Center for Advancing Translational Sciences (NCATS), 2011).
In all, about 300,000 compounds went through this assay and about 3,700 (1.2%) were called active. This list was built around the results that the source calls inconclusive (neither active nor inactive); the mix of calls is not that of the screen. The call rests on the fitted dose curve; tested in HEK293 cells. Potencies of inconclusive entries are doubtful fits and often do not repeat.
On the % scale 0 is the no-effect control and ±100 the full control effect; potency means the concentration at half of the fitted maximal effect.

Assay: qHTS for Inhibitors of binding or entry into cells for Lassa Virus; further: nearly all actives have a fitted effect of over 50% in size
Conditions: Lassa virus pseudotype entry inhibition, cell reporter; activity change, negative = inhibition: at 37.9 µM (top of the series) unless noted
In the case of `CCNC(=S)N(CCN(C)C)Cc1cc2cc(OCC)ccc2[nH]c1=O`, the “activity change, negative = inhibition” value is reported as inactive: 5.2%. With `CCC1Oc2ccc(C)cc2N(CC(=O)N(Cc2cccnc2)Cc2cccc(F)c2)C1=O` (stereo unspecified) the Potency was inconclusive: 20.6 µM [inhibitor, partial curve, poor fit]. With `Cc1ccc(Cn2c(=O)c3c(nc4n3CCN4Cc3ccco3)n(C)c2=O)cc1` the “activity change, negative = inhibition” value was inactive: 2.1%. For `Cc1cc(C)cc(N(CCC(=O)O)S(=O)(=O)c2ccc(Cl)cc2)c1`, the “activity change, negative = inhibition” value was inactive: 7.28%. For `Cc1nc2nc[nH]n2c(=O)c1CCC(=O)Nc1ccc(F)cc1`, the “activity change, negative = inhibition” value was inactive: 19.9% [at 46.1 µM]. With `C=CC[C@@]1(C(=O)OC)C=C[C@@H](C)[C@H](c2ccccc2Br)N1C(=O)C(F)(F)F` the “activity change, negative = inhibition” value was inactive: 2.41% [at 14.3 µM]. For `N#Cc1c(F)cccc1NCc1cccnc1`, the Potency was inconclusive: 1.26 µM [inhibitor, single point]. In the case of `O=C(NCc1ccco1)C1CC(=O)N(c2ccc(O)cc2)C1` (stereo unspecified), the Potency is reported as inconclusive: 10 µM [activator, partial curve, poor fit]. With `CCOc1ccc(NC(=O)Cn2c(=O)n(-c3ccccc3)c(=O)c3ccc(C(=O)NCc4ccc5c(c4)OCO5)cc32)cc1` the “activity change, negative = inhibition” value was inactive: -11.6% [at 46.1 µM]. In the case of `O=C(Cc1ccc(Cl)cc1Cl)Nc1cccc(S(=O)(=O)Nc2ccccc2F)c1`, the Potency is reported as active: 7.31 µM. For `Cc1ccc2nc(-c3ccc(SCC(=O)Nc4nc(C)cs4)nc3)[nH]c2c1`, the “activity change, negative = inhibition” value was inactive: 14.4%. With `COC(=O)Cc1ccc(NC(=S)N2CCCC(CO)C2)cc1` (stereo unspecified) the Potency was inconclusive: 12.6 µM [inhibitor, partial curve, poor fit]. In the case of `CCC1(CC)NC(=O)N(CC(=O)OCC(=O)NC(=O)c2ccccc2)C1=O`, the Potency is reported as inconclusive: 6.31 µM [inhibitor, single point]. For `CCC(C(=O)Nc1ccncc1)c1ccccc1` (stereo unspecified), the “activity change, negative = inhibition” value was inactive: -13.8%. For `O=C(/C=C/c1c(Cl)cccc1Cl)Nc1ccncc1`, the Potency was inconclusive: 5.17 µM [activator, single point]. In the case of `O=C(CSc1ccccc1)Nc1nnc(C2CC2)s1`, the Potency is reported as inconclusive: 35.5 µM [inhibitor, single point]. For `COc1cc(-c2cc(OC)c(O)c(OC)c2)cc(OC)c1O`, the Potency was inconclusive: 35.5 µM [inhibitor, single point]. In the case of `Cc1cccc(NC(=S)NC2CCCCC2)n1`, the “activity change, negative = inhibition” value is reported as inactive: 6.88%. For `CCn1c(=O)c([N+](=O)[O-])c(NCCc2ccc(OC)c(OC)c2)c2ccccc21`, the Potency was inconclusive: 29.1 µM [inhibitor, single point]. For `O=C(c1ccccc1)c1ccc(C(=O)N2CCN(c3ccc(F)cc3)CC2)o1`, the Potency was inconclusive: 22.4 µM [inhibitor, single point]. In the case of `COc1ccc(NC(=O)CN(c2ccc([N+](=O)[O-])cc2)S(=O)(=O)c2ccccc2)c(OC)c1`, the “activity change, negative = inhibition” value is reported as inactive: -22.5%.
